Reference: PubChem BioAssay AID2685 (National Center for Advancing Translational Sciences (NCATS), 2010)
Some of the results follow. The main result of the screen is listed elsewhere. These columns were measured beside it and carry no call. The list favours compounds with an active or inconclusive main result. Words in brackets tell the shape of the fitted curve; partial curves, single points and poor fits give uncertain potencies.

Test: qHTS Assay for Lipid Storage Modulators in Drosophila S3 Cells;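 as to cell number change: cells counted by Cell Tracker Red CMTPX staining in the red channel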
Details: BODIPY lipid droplet fluorescence, 18-24 h; for cell number change: measured here: cell count max response, cells fed with added oleic acid
Method in brief: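 Drosophila S3 cells got compounds at several concentrations plus oleic acid (400 uM solution). Laser-scanning cytometry with 488 nm excitation read lipid droplets at 500-530 nm and cells at 575-640 nm. Percent activity was relative to 20 uM Triacsin C.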

[1] = measured here: lipid fluorescence (Fed channel) AC50, cells fed with added oleic acid
[2] = measured here: cell number channel AC50, cells fed with added oleic acid

| Compound | cell number change | AC50 [1] | AC50 [2] |
| --- | --- | --- | --- |
| CCOc1ccc(N2C(=O)CC(NC3CCN(C(=O)c4cccs4)CC3)C2=O)cc1 (centres undefined) | -10.5% | 4.11 µM [rising, full curve] | – |
| COc1ccc2cc3cc(C(=O)NCCN4CCc5ccccc5C4)sc3nc2c1 | 25.3% | 0.58 µM [rising, full curve] | – |
| O=C(CSc1nnc(Cn2cnc3ccccc32)o1)c1ccccc1 | – | 29.1 µM [rising, single point] | – |
| N#Cc1ccccc1S(=O)(=O)N1CCN(CC(O)COc2ccccc2F)CC1 (centres undefined) | – | 6.51 µM [falling, single point] | – |
| COCCN(C(=O)Cn1c(C(F)(F)F)nc2ccccc21)c1c(N)n(Cc2ccccc2)c(=O)[nH]c1=O | -49.5% | – | 10.3 µM [falling, partial curve] |
| Cn1c(Cn2c(=O)sc3ccccc32)nnc1SCC(=O)NCc1ccccc1Cl | -48.2% | 6.51 µM [falling, single point] | 10.3 µM [falling, partial curve] |
| CC(=O)OCCCNc1cc(Sc2ccc(C)cc2)c2nonc2c1[N+](=O)[O-] | -11.2% | 0.116 µM [falling, full curve, poor fit] | – |
| COc1cccc(N2C(=NC(=O)COc3ccccc3)SC3CS(=O)(=O)CC32)c1 (centres undefined) | 31.3% | – | 0.92 µM [rising, full curve, poor fit] |
| O=C(CN1CCC(NC(=O)c2ccccc2F)CC1)Nc1ccc2c(c1)OCCO2 | 2.51% | 29.1 µM [rising, single point] | – |
| CC1CCCCN1C(=O)CSc1ccc(-c2ccc(F)cc2)nn1 (centres undefined) | 3.09% | – | – |
| CCN(CC)c1ccc(NC2CC(=O)N(CCc3ccc(OC)cc3)C2=O)cc1 (centres undefined) | -26% | – | – |
| CC(OC(=O)c1ccc(Cl)nc1)C(=O)NC1CCCC1 (centres undefined) | 0.241% | 0.58 µM [rising, single point] | – |
| Cc1[nH]ccc(=O)c1OCC(=O)O | 29.5% | 6.51 µM [falling, single point] | – |
| CCOC(=O)C(=O)Nc1ccc(S(=O)(=O)Nc2nccs2)cc1 | -6.22% | 0.0517 µM [rising, partial curve, poor fit] | – |
| CN(C(=O)COC(=O)c1ccc2c(c1)OCCO2)c1ccccc1 | -39.7% | 8.91 µM [rising, partial curve] | – |
| COc1ccccc1N1CCN(CCCOc2ccc(F)cc2)CC1 | 2.01% | 29.1 µM [rising, single point] | – |
| O=C(Cn1cnc2c(nnn2Cc2ccc(F)cc2)c1=O)Nc1ccc2c(c1)OCCO2 | 55.7% | – | 18.4 µM [rising, single point] |
| CCCc1cc(=O)oc2cc(O[C@@H]3O[C@H](CO)[C@@H](O)[C@H](O)[C@H]3O)ccc12 | 8.33% | – | – |
| CCOC(=O)C1=C(C)NC2=C(C1c1ccc([N+](=O)[O-])cc1)S(=O)(=O)c1ccccc12 (centres undefined) | 40.4% | 6.51 µM [rising, single point] | 1.64 µM [rising, single point] |
| COc1ccccc1N1CCN(C(=O)c2ccccc2NC(=O)C2CCCCC2C(=O)O)CC1 (centres undefined) | -0.37% | – | 0.731 µM [rising, full curve, poor fit] |
| COc1cc(C(=O)Nc2cccc(-c3nncn3C)c2)cc(OC)c1OC | 14.6% | 6.51 µM [falling, single point] | – |

| Compound | cell number change | AC50 [1] | AC50 [2] |
| --- | --- | --- | --- |
| COc1ccc(-c2nnc(N3CCOCC3)c3ccccc23)cc1 | -22.3% | – | – |
| Cc1cc(/C=C2\NC(=S)N(C)C2=O)ccc1N1CCCC1 | -98% | 18.4 µM [falling, single point] | 18.4 µM [falling, single point] |
| Oc1ccc2cccnc2c1 | 13.7% | – | 0.13 µM [falling, full curve, poor fit] |
| CC(C)C(NC(=O)CCNC(=O)c1ccc(C(C)(C)C)cc1)c1nc2ccccc2[nH]1 (centres undefined) | -46.2% | – | 20.6 µM [falling, partial curve] |
| Cc1ccc(C2c3[nH]c4ccccc4c3C[C@H]3C(=O)N(c4ccccc4C(=O)N4CCC(C(=O)O)CC4)C(=O)N23)cc1 (some centres undefined) | 5.8% | 29.1 µM [rising, single point] | – |
| CCOc1ccc(CCNC(=O)c2ccc(OCc3c(C)noc3C)cc2)cc1OCC | – | 29.1 µM [falling, single point] | – |
| CCCc1nnc(NC(=O)CCC(=O)N2CCN(Cc3cc(Cl)ccc3OC)CC2)s1 | 6.19% | 20.6 µM [rising, single point] | – |
| O=C(Nc1cccnc1)c1cccc(F)c1 | -39.5% | 0.291 µM [rising, partial curve, poor fit] | 29.1 µM [falling, single point] |
| COc1cccc(C2=CC(c3cc(OC)ccc3OC)n3nnnc3N2)c1 (centres undefined) | -19.4% | 0.517 µM [rising, full curve] | – |
| COC(=O)c1ccccc1NC(=O)CN(c1ccc(C)cc1)S(C)(=O)=O | -0.518% | 6.51 µM [rising, single point] | – |
| O=C(c1ccc(F)cc1)N1CCC(N2CCCCCC2)CC1 | -1.46% | – | – |
| CC(=O)c1ccc(NC(=O)COC(=O)c2ccc(F)cc2F)cc1 | 32.9% | 0.13 µM [falling, full curve, poor fit] | 0.184 µM [rising, full curve, poor fit] |
| COc1ccccc1C(=O)NC(C)c1ccccc1 (centres undefined) | – | 2.06 µM [rising, partial curve] | 0.0461 µM [rising, full curve, poor fit] |
| COc1cc(C(=O)NCc2nnc(SCC(=O)Nc3nccs3)o2)cc(OC)c1OC | – | 6.51 µM [falling, single point] | – |
| O=C(Nc1nonc1-c1ccc(Cl)cc1)c1ccccc1 | 34.7% | 0.00461 µM [rising, full curve, poor fit] | 0.00411 µM [rising, full curve, poor fit] |
| CCOC(=O)CCCCC(=O)c1[nH]c(=O)[nH]c1CSc1nnc2c3ccccc3n(C(C)C)c2n1 | -25.4% | 0.103 µM [rising, full curve, poor fit] | – |
| O=C(COC(=O)/C=C/c1ccc(Br)o1)NCCCN1CCCC1=O | 18.6% | 29.1 µM [rising, single point] | – |
| CCOc1ccc(NC(=O)CSc2nnc(-c3ccncc3)n2CC2CCCO2)cc1 (centres undefined) | -3.33% | 0.146 µM [rising, full curve, poor fit] | – |
| COCC(C)NC(=S)NC(=O)c1cc(S(=O)(=O)N2CCOCC2)ccc1C (centres undefined) | 81.8% | 4.61 µM [falling, partial curve] | 2.59 µM [falling, single point] |
| CCOc1ccc(/C=C2\CCC(C3CCCC3)C2=O)cc1OC (centres undefined) | 2.13% | – | – |
| Cc1ccc(S(=O)(=O)c2nc(C)oc2NCc2ccccc2)cc1 | 96.4% | – | 20.6 µM [rising, single point] |

In a second layout: 4 of the compounds above
CCCc1nnc(NC(=O)CCC(=O)N2CCN(Cc3cc(Cl)ccc3OC)CC2)s1
  cell number change: 6.19%; AC50 [1]: 20.6 µM [rising, single point]
COC(=O)c1ccccc1NC(=O)CN(c1ccc(C)cc1)S(C)(=O)=O
  cell number change: -0.518%; AC50 [1]: 6.51 µM [rising, single point]
CCOC(=O)CCCCC(=O)c1[nH]c(=O)[nH]c1CSc1nnc2c3ccccc3n(C(C)C)c2n1
  cell number change: -25.4%; AC50 [1]: 0.103 µM [rising, full curve, poor fit]
COCC(C)NC(=S)NC(=O)c1cc(S(=O)(=O)N2CCOCC2)ccc1C (centres undefined)
  cell number change: 81.8%; AC50 [1]: 4.61 µM [falling, partial curve]; AC50 [2]: 2.59 µM [falling, single point]

(continued)

| Compound | cell number change | AC50 [1] | AC50 [2] |
| --- | --- | --- | --- |
| O=C(Nc1ccc(Cc2ccncc2)cc1)c1ccc([N+](=O)[O-])o1 | -51.1% | 16.4 µM [falling, partial curve] | 9.2 µM [falling, partial curve] |
| Cc1ccc(C)c(NC(=S)NNC(=O)c2csc3c2CCC(C)C3)c1 (centres undefined) | -15% | 0.731 µM [falling, single point] | – |
| C=C(C)c1ccc(C(C)(C)NC(=O)NCc2ccco2)cc1 | 18% | 18.4 µM [rising, single point] | – |
| Cc1ccccc1CN1CCN(Cc2ccccc2C(F)(F)F)CC1 | -55.8% | – | 5.8 µM [falling, full curve] |
| O=C(NC(=S)Nc1ccc2nc[nH]c2c1)c1ccccc1 | -1.9% | – | – |
| COc1ccc2[nH]c3c(c2c1)CCNC3C1CC=C(C)CC1 (centres undefined) | 12.6% | – | – |
| CN(C(=S)Nc1ccccc1F)C1(c2ccccc2Cl)CCCCC1=O (centres undefined) | -17.2% | – | – |
| CN(C)CCCN(C(=O)COc1ccc(Cl)cc1)c1nc2cc3c(cc2s1)OCCO3 | 31.5% | – | 16.4 µM [rising, single point] |
| CCCCc1cc2c(s1)CCCC/C2=N/O | -52.2% | 25.9 µM [falling, partial curve, poor fit] | 25.9 µM [falling, partial curve, poor fit] |
| CN1CCN(C(=O)Cn2c(=O)oc3cc(S(=O)(=O)NCc4ccccc4)ccc32)CC1 | -120% | – | 25.9 µM [falling, partial curve, poor fit] |
| CCOC(=O)CCCNC(=O)CCNC(=O)c1ccc(OCC(C)C)cc1 | -7.02% | 0.00461 µM [falling, full curve, poor fit] | – |
| CC1(C)Cc2c(sc3ncn4c(=S)[nH]nc4c23)CO1 | 2.91% | – | 4.61 µM [falling, single point] |
| COC(=O)CCSCC(=O)N1N=C(c2ccc(Br)cc2)CC1c1cccc(OC)c1OC (centres undefined) | 25.1% | – | – |
| O=C(Nc1ccc(F)cc1)C1CCN(S(=O)(=O)c2cccc3nonc23)CC1 | -10.3% | – | – |
| Nn1c(SCC(=O)Nc2ccc3c(c2)OCO3)nnc1-c1ccncc1 | 7.01% | – | – |
| COc1ccccc1NC(=O)CSc1nc2[nH]ncc2c(=O)[nH]1 | 14.1% | – | – |
| O=C(c1cc(-c2ccccc2)nc2ccccc12)N1N=C(C(F)F)CC1(O)C(F)F (centres undefined) | 48.6% | – | 23.1 µM [rising, single point] |
| Cc1cc(C)c(O)c(-c2cc(C(=O)NCCc3ccc(S(N)(=O)=O)cc3)[nH]n2)c1 | 24.9% | 13 µM [rising, partial curve] | – |
| COc1ccc(CCN2C(=O)c3ccncc3C2=O)cc1OC | 9.89% | 5.17 µM [rising, single point] | – |
